Test results published in PMC4541365, “Alpha-ring Independent Assembly of the 20S Proteasome” (Scientific Reports, 2015).

How the values were obtained:
[1] = target: T1, M. maripaludis α-his subunit K59E (Methanococcus maripaludis S2) (UniProt Q6M0L9); assay: pull-down; α-his coexpressed with untagged β subunits in E. coli; purified by ICAR through α-his; eluate on nondenaturing 5–10% gel, substrate overlay and SDS-PAGE
T1 sequence: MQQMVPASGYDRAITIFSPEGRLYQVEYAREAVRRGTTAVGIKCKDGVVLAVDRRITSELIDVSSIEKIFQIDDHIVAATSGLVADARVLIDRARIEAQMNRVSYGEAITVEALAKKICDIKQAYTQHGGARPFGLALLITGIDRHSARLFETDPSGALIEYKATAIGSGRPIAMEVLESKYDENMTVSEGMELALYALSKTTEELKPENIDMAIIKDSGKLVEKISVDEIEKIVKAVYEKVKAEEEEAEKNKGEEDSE

[2] = target: T2, M. maripaludis α-his subunit R88D (Methanococcus maripaludis S2) (UniProt Q6M0L9); assay: as above
T2 sequence: T1 sequence with E59K, R88D

[3] = target: T3, Methanococcus maripaludis S2 20S proteasome α subunit, C-terminally hexahistidine-tagged, wild type (Methanococcus maripaludis S2) (UniProt Q6M0L9); assay: as above
T3 sequence: T1 sequence with E59K

[4] = target: T1, M. maripaludis α-his subunit K59E (Methanococcus maripaludis S2); assay: pull-down; lysate mixing: total crude lysates of E. coli separately expressing α-his and untagged β mixed, 37 °C, 30 min; purified by ICAR through α-his; eluate on nondenaturing 5–10% gel, substrate overlay and SDS-PAGE
[5] = target: T2, M. maripaludis α-his subunit R88D (Methanococcus maripaludis S2); assay: as above
[6] = target: T3, Methanococcus maripaludis S2 20S proteasome α subunit, C-terminally hexahistidine-tagged, wild type (Methanococcus maripaludis S2); assay: as above
[7] = target: T1, M. maripaludis α-his subunit K59E (Methanococcus maripaludis S2); assay: SEC; lysates with α-his mixed with lysates with untagged full length β; purified by ICAR; purified proteins fractionated by size exclusion chromatography (Sephacryl S-300)

Measured: binding

M. maripaludis β subunit R166W, untagged (Methanococcus maripaludis S2)
not listed: [7]
binds: all other assays above

M. maripaludis β subunit K29E, untagged (Methanococcus maripaludis S2)
binds: [7]

M. maripaludis β subunit T1A, untagged (Methanococcus maripaludis S2)
binds: [1] | [2] | [4] | [5]

Substitutions are numbered along the chain they refer to. Results are given in words; binding and its absence hold for the method and conditions named. A result given as binding can be weak or reduced; the word gives no strength. Tags and fused reporters may be left off the sequences shown. For some assays here: In cells and extracts the contact can be indirect.
